PubChem BioAssay AID662 (National Center for Advancing Translational Sciences (NCATS), 2007)
Hit rate of the full screen: of about 71,000 compounds, about 1,800 (2.5%) were called active. Listed are the inconclusive results; actives and inactives stand elsewhere. Calls follow the shape of the dose curve; as a rule, active = well fitted activation curve with a large enough effect in the signal ratio, with a control signal flat (not every such curve was filed as active); inconclusive = small, poorly fitted or top-dose-only effect, or effect the other way, or a change in a side signal; inactive = flat fitted curve, though single readings scatter; the % refers to the signal ratio.

Assay: Cell signaling CRE-BLA (Fsk stim); also: % of control where 0% means no effect
Conditions: CHO CRE-bla reporter (cAMP response element driving beta-lactamase), forskolin EC10, beta-lactamase ratio; at 38.2 µM (top of the series)
Excerpt: NIH Molecular Libraries Screening Centers Network [MLSCN]
NIH Chemical Genomics Center [NCGC]
Assay Provider: Marshall W. Nirenberg, U.S. National heart lung & blood institute
Memories persist for different lengths of time, from seconds or minutes to a lifetime. There are two kinds of memory: short-term memory (STM) and long-term memory (LTM). STM lasts for minutes to hours, which maybe mediated by modifications of molecules involved in synaptic functions. LTM lasts for days or longer, and may be due to the formation of new synapses or restructuring of existing synapses. LTM, but not STM, requires gene transcription and synthesis of proteins. […]
Using a beta-lactamase reporter-gene under control of cAMP responsive element, a cell-based assay [CellSensor(TM) CRE-bla CHO developed by Invitrogen Corp.] was used to measure forskolin-induced signaling. Library compounds were measured for their ability to modulate positively or negatively the action of EC10 NKH 477, a water soluble forskolin, on reporter gene activity. […]
2000 cells/5uL in Opti-MEM medium containing 0.5% dialyzed FBS, 0.1 mM NEAA, 1 mM sodium pyruvate and 10 mM HEPES was dispensed into 1536-well plates and cells were cultured at 37 degrees Celsius overnight. […] After incubated at room temperature for 2 hours the plates were measured on an EnVision plate reader at Excitation 405nm, Emission1=460nm and Emission 2=530nm. […]
For Cc1cc([N+](=O)[O-])cc([N+](=O)[O-])c1O, the activity change, negative = inhibition was inconclusive: -15.1%.
